According to article PMC7819943, “Rice protein-binding microarrays: a tool to detect cis-acting elements near promoter regions in rice”:
Some of the results follow.

Biological target: T1, OsSMF1 (Oryza sativa, UniProt Q6ZLB0 1-436)
T1 sequence: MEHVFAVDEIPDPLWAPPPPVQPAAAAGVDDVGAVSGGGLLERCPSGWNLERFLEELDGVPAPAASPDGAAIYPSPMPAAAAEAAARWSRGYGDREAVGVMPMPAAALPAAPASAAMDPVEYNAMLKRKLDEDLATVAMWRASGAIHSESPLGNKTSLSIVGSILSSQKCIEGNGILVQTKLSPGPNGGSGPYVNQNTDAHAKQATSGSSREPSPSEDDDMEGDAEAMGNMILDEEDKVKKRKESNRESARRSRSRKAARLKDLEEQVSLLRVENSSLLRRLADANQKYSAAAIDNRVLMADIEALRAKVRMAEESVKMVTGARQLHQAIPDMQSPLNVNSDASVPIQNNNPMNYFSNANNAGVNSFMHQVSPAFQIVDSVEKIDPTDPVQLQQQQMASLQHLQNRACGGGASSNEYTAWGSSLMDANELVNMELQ
Test: protein-binding microarray (RPBM); PBS, 2% BSA, 51.3 ng/ul salmon testes DNA, 50 uM zinc acetate, 200 nM TF, 25 C, 1 h; high values mean tight binding
Conditions: protein: recombinant; tags: N-terminal polyhistidine and DsRed monomer fusion (pET32a); chain copies: 2; label: CyDye5-dUTP incorporated in the synthesized complementary strand; 3' TTTTT single-stranded linker to array surface; dsDNA, one strand shown
Outline: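 The binding signal for each feature is its fluorescence intensity in arbitrary units. An Axon 4000B scanner was used to read a custom Agilent array that had been made double-stranded with Cy5-dUTP primer extension, blocked with 2% BSA, incubated at 25 °C for 1 h with 200 nM protein in PBS, 2% BSA, salmon testes DNA and 50 µM zinc acetate, and washed. The protein was an N-terminal polyhistidine–DsRed transcription factor fusion from E. coli BL21-CodonPlus, purified on Ni–NTA.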

| Sequence | binding signal |
| --- | --- |
| TACTATCACACCACGCGTCTACGTATGATCCTACTGCTTACGGAGTCACCTAGTGCAG | 4290 fluorescence intensity (a.u.) |
| GCGCTCGCCGGAGGAGGAGGAGGAGGATCTTGATTTGTGTCGGAGTCACCTAGTGCAG | 3460 fluorescence intensity (a.u.) |
| CCGCCTCCCGATCCCCTCCGCGTCACGGCCTCACTCGTCGCGGAGTCACCTAGTGCAG | 7900 fluorescence intensity (a.u.) |
| ATTGTAATTCTCTGTTGTTTAGCATATATTAAGGTTTGAGCGGAGTCACCTAGTGCAG | 4280 fluorescence intensity (a.u.) |
| CCAATTGCTTACGTACGACTACTCCTCCACGCCCCAAATCCGGAGTCACCTAGTGCAG | 4360 fluorescence intensity (a.u.) |
| GTACTGCGGTGGATTTTGGACACGTGGGCTTGACGTATTCCGGAGTCACCTAGTGCAG | 15300 fluorescence intensity (a.u.) |
| ATATGGATCCCAATGGACGCGTCGTCATGCCAATTGGGCCCGGAGTCACCTAGTGCAG | 3630 fluorescence intensity (a.u.) |
| CTGCAGATGACATCCGTATTGCTGACTGTACTGTAGCAGCCGGAGTCACCTAGTGCAG | 15200 fluorescence intensity (a.u.) |
| CAGCCTCCCGTCGCTGCCGGCGTGGCGCCCACCCTAGGACCGGAGTCACCTAGTGCAG | 4720 fluorescence intensity (a.u.) |
| CACTCGCCAGGAGGAGCCAGCCGACGAGGGCGCAGCGGCGCGGAGTCACCTAGTGCAG | 3540 fluorescence intensity (a.u.) |
| TTTACTATACTATTAATATATGGTCCCACCTGTCATACACCGGAGTCACCTAGTGCAG | 3730 fluorescence intensity (a.u.) |
| TCAGTTGACACACAAGGTTCAGATGTGAAGAGATCCTCATCGGAGTCACCTAGTGCAG | 23300 fluorescence intensity (a.u.) |
| CATGGACGATCGATGGACGGCGGAAGACCTCACCGGCCTGCGGAGTCACCTAGTGCAG | 22200 fluorescence intensity (a.u.) |
| CCTTGGACTCGCCACCGCCACCTCCTCCAATCGCATTCTCCGGAGTCACCTAGTGCAG | 3240 fluorescence intensity (a.u.) |
| ATAGTGGTGAGTATGCGCGTGTTATAGACGTATGCGTTTGCGGAGTCACCTAGTGCAG | 3530 fluorescence intensity (a.u.) |
| GACGACACCGGCGGTGAAGAGCTGGAGCATGACGAGCGCCCGGAGTCACCTAGTGCAG | 3750 fluorescence intensity (a.u.) |
| ATGGGTGATTTCACTGACGTGGCATCCTAGTCAGCCAAAACGGAGTCACCTAGTGCAG | 20700 fluorescence intensity (a.u.) |
| ACCGTTGAATTTTAGATATAAGTTTGACTATTCATCTTATCGGAGTCACCTAGTGCAG | 3990 fluorescence intensity (a.u.) |
| CCGTATATCCGCTTACGTCACCTCGCTGCTTGGCCTTGTTCGGAGTCACCTAGTGCAG | 18800 fluorescence intensity (a.u.) |
| GTTTATATGGGTTAGATGTAGCCATGTCACCTCTTTCTAACGGAGTCACCTAGTGCAG | 3150 fluorescence intensity (a.u.) |
| TATCCGACAGACGCGCCGTGTCAGCGAGCTCCTCGACCGACGGAGTCACCTAGTGCAG | 3920 fluorescence intensity (a.u.) |

Looked up above.
Value for ATATGGATCCCAATGGACGCGTCGTCATGCCAATTGGGCCCGGAGTCACCTAGTGCAG under binding signal: 3630 fluorescence intensity (a.u.)
Value for CATGGACGATCGATGGACGGCGGAAGACCTCACCGGCCTGCGGAGTCACCTAGTGCAG under binding signal: 22200 fluorescence intensity (a.u.)
Value for GTACTGCGGTGGATTTTGGACACGTGGGCTTGACGTATTCCGGAGTCACCTAGTGCAG under binding signal: 15300 fluorescence intensity (a.u.)

Remaining list, next part.

| Sequence | binding signal |
| --- | --- |
| TCTAGTTTCTTCGATCTGACTAGATCTCAACTCTGAATAACGGAGTCACCTAGTGCAG | 4080 fluorescence intensity (a.u.) |
| ATGGAGTCTGATGCTGAAGAAATCAATCATCAGTACTAGTCGGAGTCACCTAGTGCAG | 3340 fluorescence intensity (a.u.) |
| CCCTCACCTGGCCCACCTGTCAGCCACGTCGGGGTATCCGCGGAGTCACCTAGTGCAG | 8680 fluorescence intensity (a.u.) |
| AAGATTTGCTGGGAGGGTGGGGTGGGGATTAGTCCCTAAACGGAGTCACCTAGTGCAG | 4630 fluorescence intensity (a.u.) |
| CACTTGGTTGCTGTTCATCATCGATCATCATTTGGCAATGCGGAGTCACCTAGTGCAG | 3870 fluorescence intensity (a.u.) |
| GAGTCGGGGTGGGCTGGCGGTCGAGATGACGCAAGCGACGCGGAGTCACCTAGTGCAG | 24800 fluorescence intensity (a.u.) |
| TTGTTTGTGACTGACACTGGTGGAGATGACGGCTGGAATCCGGAGTCACCTAGTGCAG | 3230 fluorescence intensity (a.u.) |
| AGCTTCCAGCCACCGGCCACCGCCATCATCATCCTCGCGACGGAGTCACCTAGTGCAG | 3370 fluorescence intensity (a.u.) |
| AAGCTAAAGGAGGAAGCAATCCAGATCACCTGATGGCACACGGAGTCACCTAGTGCAG | 3520 fluorescence intensity (a.u.) |
| GAGTAGGTCTCATGAATCATCCCTTGCGCGTCACTAGTTACGGAGTCACCTAGTGCAG | 4860 fluorescence intensity (a.u.) |
| CCTTAATTACATTGTATATAGTGATGTATGATTTATTTTACGGAGTCACCTAGTGCAG | 3280 fluorescence intensity (a.u.) |
| AATTAATTGGAAAGTTCATTTGGGCCACGTGCCAAATACACGGAGTCACCTAGTGCAG | 4140 fluorescence intensity (a.u.) |
| GCATCACACGCCACTCTTACACGCAGGAACACCTAGGTTGCGGAGTCACCTAGTGCAG | 3900 fluorescence intensity (a.u.) |
| CATTTCATCTACCTCTTCTTGCATCAGCAGCAGTGGTCAGCGGAGTCACCTAGTGCAG | 3480 fluorescence intensity (a.u.) |
| TTGCCTCCACGCATGATGTCATAATTGTTGTCAAACATGACGGAGTCACCTAGTGCAG | 7190 fluorescence intensity (a.u.) |
| AACTTAAAGACACGGAAAGAAAGAAAGCTGACCTTAGCAGCGGAGTCACCTAGTGCAG | 23300 fluorescence intensity (a.u.) |
| TCCTCACCTACGGCGCCCGCGACATCGTCTTCGCGCCGTTCGGAGTCACCTAGTGCAG | 3280 fluorescence intensity (a.u.) |
| TCATCGCCATCTCGAATTCTCGATGGATCGATCGTTAATTCGGAGTCACCTAGTGCAG | 32900 fluorescence intensity (a.u.) |
| TTAATCCGCCATTAGTACATGTGGGTTACTATAGCACTTACGGAGTCACCTAGTGCAG | 19100 fluorescence intensity (a.u.) |
| TATGCAAAATGATATATCGGACCCACGTCACGATGGAGGACGGAGTCACCTAGTGCAG | 6810 fluorescence intensity (a.u.) |
| TTGTAAGTACACTAGGTGAAACATCTTTTGTGGAATAAAGCGGAGTCACCTAGTGCAG | 19900 fluorescence intensity (a.u.) |
